US20050215770A1
No constants are given. Whether binding was seen depends on the method and setting. Some entries that bind do so weakly or less than the wild type. Where a sequence is shown, tags or fusion partners need not be part of it.

Experiments:
[1] = target: T1, Recombinant soluble human Flag-tagged NogoR (amino acids 1 to 309 of SEQ ID NO:2) (human) (UniProt Q9BZR6); experiment: ECL phage screen on biotin-rHuNOGOSR-Flag (positive: 5-fold above background)
T1 sequence (chain, biotinylated with Sulfo-NHS-LC-Biotin): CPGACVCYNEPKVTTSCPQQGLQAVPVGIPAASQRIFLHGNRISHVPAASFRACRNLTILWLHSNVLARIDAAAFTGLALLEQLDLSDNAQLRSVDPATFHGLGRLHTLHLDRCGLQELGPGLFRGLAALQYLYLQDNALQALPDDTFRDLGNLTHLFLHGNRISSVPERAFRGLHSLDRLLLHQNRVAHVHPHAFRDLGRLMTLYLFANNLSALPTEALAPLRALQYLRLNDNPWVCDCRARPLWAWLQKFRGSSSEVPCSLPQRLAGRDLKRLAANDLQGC

[2] = target: T1, Recombinant soluble human Flag-tagged NogoR (amino acids 1 to 309 of SEQ ID NO:2) (human); experiment: ECL phage screen (Example 1)
[3] = target: T1, Recombinant soluble human Flag-tagged NogoR (amino acids 1 to 309 of SEQ ID NO:2) (human); experiment: ECL competition vs Ori-TAG Rat MAG-Fc, phage and/or soluble scFv

Measured: binding

B1: NGF0947 (scFv)
scFv: QVQLQESGGGLVQPGGSLRLSCAASGLNLRQEEMNWVRQTPEKGLEWISYISSGGGSRDYADSVKGRFTISRDNAKNLMYLQMNNLRAEDTAVYYCARQEAGRYEALDIWGRGTLVTVSSGGGGSGGGGSGGGGSAQSVLTQPPSVSGAPGQTVTISCTGTTSNIGAGYDVHWYQQVPGTAPKVLIYGSRNRPSGVPYRFSGFKSGTSASLAITGLQAEDEADYYCQAYDSSLSGYVFGMGTQLTVLS
binds: all assays above

B2: NGF0936 (scFv)
scFv: QVQLQESGAEVKKPGSSVKVSCKASGGTFSSYAISWVRQAPGQGLEWMGGIIPIFGTANYAQKFQGRVTITADESTSTAYMELSSLRSEDTAVYYCATLNSGYDYKWGYYYYGMDVWGRGTLVTVSSGGGGSGGGGSGGGGSAQPVLTQPPSASGAPGQTVTISCSGSSSNVGSNTVDWYQQLPGSAPKLLIYTNDQRPSGVPDRFSGSKSGTSASLAISGLQSEDEADYYCSTRDDRLNGRVFGGGTKLPVLG
binds: all assays above
